In this assay the test system is Mus musculus. Nature of the assay: The effective dose was measured by using mouse writhing assay after the compound administered subcutaneously. It is filed as functional. The following applies: sc. The procedure, abridged:
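Analgesia in the mouse writhing test induced by acetic acid, with compound given subcutaneously. Salts were dissolved in distilled H₂O; free bases were dissolved by dropwise 1 N HCl and then diluted.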

The compound `CN1CC[C@]23c4c5ccc(O)c4O[C@H]2[C@@H](O)C=C[C@H]3[C@H]1C5` [MORPHINE] yielded an ED50 of 2.1 µmol/kg.
